{"source": "PubChem BioAssay AID1508597 – Cure First | 2020", "test": "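Knock-downs altering ovarian cancer cell survival with or without PARP inhibitor rucaparib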 (primary screen)", "cells": "human ovarian carcinoma lines grown from tumours: OCI-P5x (papillary serous) and OCI-C5x (clear cell)", "reagent": "siRNA pool against human genes, 1.25 pmol siRNA per well", "time to read-out": "72 h or 96 h, depending on the cell culture", "treatment": "rucaparib 20 µM (about IC30) or vehicle, present until read-out", "rucaparib or vehicle": "Vehicle", "cell line": "OCI-C5x (clear cell)", "read-out": "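Luminescent ATP-based viability assay read 72 or 96 h after transfection, depending on culture, given as normalised percent viability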", "reading the numbers": "viability, normalised: higher = more viable cells remaining", "rule for the call": "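a well counts as a hit if its normalised viability is under 80 percent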", "calls": "active = viability under 80%; inactive = viability 80% or more", "note": "This is an unselected part of the about 2,100 reagents, under one of the conditions tested. 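Calls flag viability under 80% in either arm, not effects specific to rucaparib; the reference for percent is not stated.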 Entries without a mark were called inactive. Some reagents were tested in more than one well and are listed for each. The record does not give: the 100% reference."}
{"gene": "PEA15 (proliferation and apoptosis adaptor protein 15)", "technical replicate": "1", "viability, normalised (%)": "36.9 (active)"}
{"gene": "PEA15 (proliferation and apoptosis adaptor protein 15)", "technical replicate": "2", "viability, normalised (%)": "45.2 (active)"}
{"gene": "PEA15 (proliferation and apoptosis adaptor protein 15)", "technical replicate": "3", "viability, normalised (%)": "39.8 (active)"}
{"gene": "BCL3 (BCL3 transcription coactivator)", "technical replicate": "1", "viability, normalised (%)": "57 (active)"}
{"gene": "BCL3 (BCL3 transcription coactivator)", "technical replicate": "2", "viability, normalised (%)": "46.8 (active)"}
{"gene": "BCL3 (BCL3 transcription coactivator)", "technical replicate": "3", "viability, normalised (%)": "50.6 (active)"}
{"gene": "HERC2 (HECT and RLD domain containing E3 ubiquitin protein ligase 2)", "technical replicate": "1", "viability, normalised (%)": 99.5}
{"gene": "HERC2 (HECT and RLD domain containing E3 ubiquitin protein ligase 2)", "technical replicate": "1", "viability, normalised (%)": "58.6 (active)"}
{"gene": "HERC2 (HECT and RLD domain containing E3 ubiquitin protein ligase 2)", "technical replicate": "2", "viability, normalised (%)": 90.9}
{"gene": "HERC2 (HECT and RLD domain containing E3 ubiquitin protein ligase 2)", "technical replicate": "2", "viability, normalised (%)": "42 (active)"}
{"gene": "HERC2 (HECT and RLD domain containing E3 ubiquitin protein ligase 2)", "technical replicate": "3", "viability, normalised (%)": "52.7 (active)"}
{"gene": "HERC2 (HECT and RLD domain containing E3 ubiquitin protein ligase 2)", "technical replicate": "3", "viability, normalised (%)": 92.4}
{"gene": "DCK (deoxycytidine kinase)", "technical replicate": "1", "viability, normalised (%)": "65 (active)"}
{"gene": "DCK (deoxycytidine kinase)", "technical replicate": "1", "viability, normalised (%)": "52.1 (active)"}
{"gene": "DCK (deoxycytidine kinase)", "technical replicate": "2", "viability, normalised (%)": 82.1}
{"gene": "DCK (deoxycytidine kinase)", "technical replicate": "2", "viability, normalised (%)": "66.7 (active)"}
{"gene": "DCK (deoxycytidine kinase)", "technical replicate": "3", "viability, normalised (%)": "61.3 (active)"}
{"gene": "DCK (deoxycytidine kinase)", "technical replicate": "3", "viability, normalised (%)": "64 (active)"}
{"gene": "MAPK9 (mitogen-activated protein kinase 9)", "technical replicate": "1", "viability, normalised (%)": "54.9 (active)"}
{"gene": "MAPK9 (mitogen-activated protein kinase 9)", "technical replicate": "2", "viability, normalised (%)": "76.3 (active)"}
{"gene": "MAPK9 (mitogen-activated protein kinase 9)", "technical replicate": "3", "viability, normalised (%)": 81.3}
{"gene": "ACVR1C (activin A receptor type 1C)", "technical replicate": "1", "viability, normalised (%)": 90.2}
{"gene": "ACVR1C (activin A receptor type 1C)", "technical replicate": "2", "viability, normalised (%)": "73.1 (active)"}
{"gene": "ACVR1C (activin A receptor type 1C)", "technical replicate": "3", "viability, normalised (%)": 84.7}
{"gene": "BRD4 (bromodomain containing 4)", "technical replicate": "1", "viability, normalised (%)": "41.6 (active)"}
{"gene": "BRD4 (bromodomain containing 4)", "technical replicate": "1", "viability, normalised (%)": 84.3}
{"gene": "BRD4 (bromodomain containing 4)", "technical replicate": "1", "viability, normalised (%)": "59.6 (active)"}
{"gene": "BRD4 (bromodomain containing 4)", "technical replicate": "1", "viability, normalised (%)": "59.3 (active)"}
{"gene": "BRD4 (bromodomain containing 4)", "technical replicate": "2", "viability, normalised (%)": "53.8 (active)"}
{"gene": "BRD4 (bromodomain containing 4)", "technical replicate": "2", "viability, normalised (%)": "67.6 (active)"}
{"gene": "BRD4 (bromodomain containing 4)", "technical replicate": "2", "viability, normalised (%)": "39.7 (active)"}
{"gene": "BRD4 (bromodomain containing 4)", "technical replicate": "2", "viability, normalised (%)": "58.6 (active)"}
{"gene": "BRD4 (bromodomain containing 4)", "technical replicate": "3", "viability, normalised (%)": "70.1 (active)"}
{"gene": "BRD4 (bromodomain containing 4)", "technical replicate": "3", "viability, normalised (%)": "63.8 (active)"}
{"gene": "BRD4 (bromodomain containing 4)", "technical replicate": "3", "viability, normalised (%)": "46.4 (active)"}
{"gene": "BRD4 (bromodomain containing 4)", "technical replicate": "3", "viability, normalised (%)": "50.5 (active)"}
